The target in this assay is monkey BCMA protein (monkey). Briefly: phage library panning and clone identification.

No constants are given. Whether binding was seen depends on the method and setting. Binding calls can cover weak binding; strength is not graded here.

B1: VHH2 (VHH)
VHH: QVQLVESGGGLVQSRGSLRLSCAASESISSIHIMAWYRRAPGKQRELVAGIRNDGSTVYADSAKGRFTISRDNAKNTVYLQMNSLKPEDTAVYYCNADQGFGSYSEWERRSRWGQGTEVTVSS
For the molecule B1, the binding entry was “binds”.

Source of the values: patent US20250213694A1 (SHANGHAI SIMNOVA BIOTECHNOLOGY, published 2025).
